Experimental data reported in paper PMC11428147, “Replacement of nitro function by free boronic acid in non-steroidal anti-androgens” (RSC Medicinal Chemistry, 2024).

Assay: 11B- and 19F-NMR binding experiment with arginine methyl ester
Settings: equimolar mixture with Arg-OMe in DMSO-d6

| SMILES | Formation of coordinate covalent N–B bond with Arg-OMe (11B- and 19F-NMR chemical shifts) |
| --- | --- |
| O=C(Nc1ccc(B(O)O)c(F)c1)c1cnc(Cl)cn1 [9a, 4-(5-Chloropyrazine-2-carboxamido)-2-fluorophenylboronic acid] | no significant changes in chemical shifts |
| CC(C)C(=O)Nc1ccc(B(O)O)c(C(F)(F)F)c1 [1c, 4-Isobutyramido-2-(trifluoromethyl)phenylboronic acid] | no significant changes in chemical shifts |
